This assay addresses Caveolin-1 (CAV1), in MDA-MB-231 breast cancer cells (human (endogenous in MDA-MB-231)) (UniProt Q03135). The assay can be described thus: co-IP; MDA-MB-231 cells; RIPA lysate with PMSF and phosphatase inhibitor; Caveolin-1 antibody or species-matched IgG overnight at 4°C, Protein A/G agarose 2-4 h, 3 PBS washes; Western blot. (A western blot detects proteins with antibodies after separation by electrophoresis.)

The chains behind the UniProt entries cited, without tags or fusion partners.
UniProt Q03135: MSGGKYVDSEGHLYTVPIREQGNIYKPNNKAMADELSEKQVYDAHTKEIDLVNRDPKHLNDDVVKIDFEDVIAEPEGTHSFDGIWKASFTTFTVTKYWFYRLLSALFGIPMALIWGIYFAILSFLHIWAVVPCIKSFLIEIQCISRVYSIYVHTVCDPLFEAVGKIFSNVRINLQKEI
UniProt Q05397: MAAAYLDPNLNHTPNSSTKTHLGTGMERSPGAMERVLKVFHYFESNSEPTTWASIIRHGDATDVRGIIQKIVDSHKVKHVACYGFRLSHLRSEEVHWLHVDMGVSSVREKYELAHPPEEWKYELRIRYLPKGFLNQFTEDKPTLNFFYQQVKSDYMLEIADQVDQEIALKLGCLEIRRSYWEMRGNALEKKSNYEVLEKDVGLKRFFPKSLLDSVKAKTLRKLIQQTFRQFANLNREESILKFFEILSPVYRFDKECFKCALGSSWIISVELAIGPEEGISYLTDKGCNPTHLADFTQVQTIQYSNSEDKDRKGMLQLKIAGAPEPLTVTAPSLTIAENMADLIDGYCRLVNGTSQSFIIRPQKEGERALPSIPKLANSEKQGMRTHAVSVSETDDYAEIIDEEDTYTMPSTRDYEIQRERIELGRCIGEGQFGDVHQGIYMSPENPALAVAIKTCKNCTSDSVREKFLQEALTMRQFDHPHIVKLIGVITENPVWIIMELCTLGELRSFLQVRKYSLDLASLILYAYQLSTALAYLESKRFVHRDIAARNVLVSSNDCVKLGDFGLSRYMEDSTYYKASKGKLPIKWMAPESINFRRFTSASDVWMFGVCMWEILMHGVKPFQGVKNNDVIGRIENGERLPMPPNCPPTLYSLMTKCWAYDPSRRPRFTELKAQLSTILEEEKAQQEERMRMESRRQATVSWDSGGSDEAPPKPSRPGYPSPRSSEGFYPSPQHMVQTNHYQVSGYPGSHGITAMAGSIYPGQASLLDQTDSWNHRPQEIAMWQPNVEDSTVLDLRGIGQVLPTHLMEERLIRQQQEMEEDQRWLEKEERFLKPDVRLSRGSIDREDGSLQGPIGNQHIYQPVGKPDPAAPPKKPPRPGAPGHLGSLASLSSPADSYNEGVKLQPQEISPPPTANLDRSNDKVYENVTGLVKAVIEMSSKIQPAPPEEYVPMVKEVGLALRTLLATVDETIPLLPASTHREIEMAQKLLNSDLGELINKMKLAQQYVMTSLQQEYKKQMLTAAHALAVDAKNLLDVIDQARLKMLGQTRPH

These are yes or no findings as the source states them, for the method shown. Binding seen in cells or lysates may run through a third protein. Some results given as binding are weak or reduced against the parent protein; the word gives no strength.

Take “Focal adhesion kinase (FAK) (from UniProt Q05397 1-1052) (enzyme)”: the binding result is listed as “binds”.

B1: Integrin α6 (ITGA6) (receptor, UniProt P23229 24-1130)
chain: FNLDTREDNVIRKYGDPGSLFGFSLAMHWQLQPEDKRLLLVGAPRAEALPLQRANRTGGLYSCDITARGPCTRIEFDNDADPTSESKEDQWMGVTVQSQGPGGKVVTCAHRYEKRQHVNTKQESRDIFGRCYVLSQNLRIEDDMDGGDWSFCDGRLRGHEKFGSCQQGVAATFTKDFHYIVFGAPGTYNWKGIVRVEQKNNTFFDMNIFEDGPYEVGGETEHDESLVPVPANSYLGLLFLTSVSYTDPDQFVYKTRPPREQPDTFPDVMMNSYLGFSLDSGKGIVSKDEITFVSGAPRANHSGAVVLLKRDMKSAHLLPEHIFDGEGLASSFGYDVAVVDLNKDGWQDIVIGAPQYFDRDGEVGGAVYVYMNQQGRWNNVKPIRLNGTKDSMFGIAVKNIGDINQDGYPDIAVGAPYDDLGKVFIYHGSANGINTKPTQVLKGISPYFGYSIAGNMDLDRNSYPDVAVGSLSDSVTIFRSRPVINIQKTITVTPNRIDLRQKTACGAPSGICLQVKSCFEYTANPAGYNPSISIVGTLEAEKERRKSGLSSRVQFRNQGSEPKYTQELTLKRQKQKVCMEETLWLQDNIRDKLRPIPITASVEIQEPSSRRRVNSLPEVLPILNSDEPKTAHIDVHFLKEGCGDDNVCNSNLKLEYKFCTREGNQDKFSYLPIQKGVPELVLKDQKDIALEITVTNSPSNPRNPTKDGDDAHEAKLIATFPDTLTYSAYRELRAFPEKQLSCVANQNGSQADCELGNPFKRNSNVTFYLVLSTTEVTFDTPDLDINLKLETTSNQDNLAPITAKAKVVIELLLSVSGVAKPSQVYFGGTVVGEQAMKSEDEVGSLIEYEFRVINLGKPLTNLGTATLNIQWPKEISNGKWLLYLVKVESKGLEKVTCEPQKEINSLNLTESHNSRKKREITEKQIDDNRKFSLFAERKYQTLNCSVNVNCVNIRCPLRGLDSKASLILRSRLWNSTFLEEYSKLNYLDILMRAFIDVTAAAENIRLPNAGTQVRVTVFPSKTVAQYSGVPWWIILVAILAGILMLALLVFILWKCGFFKRSRYDDSVPRYHAVRIRKEEREIKDEKYIDNLEKKQWITKWNENESYS
On to B1, for which the binding result is on record as “no binding”.

These data come from publication PMC11528463.
